# Experimental data taken from patent US20190015494A1.
# Results are given in words; binding and its absence hold for the method and conditions named. Binding seen in cells or lysates may run through a third protein. Some entries that bind do so weakly or less than the wild type.
# B1: IPVsSHNSL (SEQ ID NO: 19) (peptide)
# peptide: IPVSSHNSL
# modifications: O-GlcNAc on S4
# B2: IPVsKPLSL (SEQ ID NO: 18) (peptide)
# peptide: IPVSKPLSL
# modifications: O-GlcNAc on S4
# Experiments:
# [1] = molecular target: HLA B*0702 class I MHC molecule (human); test: LC-MS/MS of peptides eluted from immunoaffinity-purified class I MHC; Table 4: associated with HLA B*0702
# [2] = molecular target: HLA B*0702 class I MHC molecule (human); test: LC-MS/MS of eluted class I MHC peptides of HLA B*07:02 leukemia samples
# [3] = molecular target: HLA B*0702 class I MHC molecule (human); test: LC-MS/MS of eluted class I MHC peptides; Table 7: presented by HLA B*0702 on AML, ALL, CLL, GM, JY, S, To
# [4] = molecular target: HLA B*0702 class I MHC molecule (human); test: LC-MS/MS of eluted class I MHC peptides; Table 7: presented by HLA B*0702 on AML, ALL, CLL
Binder,binding [1],binding [2],binding [3],binding [4]
B1,binds,binds,binds,–
B2,binds,–,–,binds
